The list shows a part of the results, in another mix than the full data. The calls were merged from several studies; some rest on single wells.
Columns and labels:
Details in all cases: stereoisomer not certain
UniProt Q8VGT4 = molecular target: T1, UniProt Q8VGT4
T1 sequence (whole entry): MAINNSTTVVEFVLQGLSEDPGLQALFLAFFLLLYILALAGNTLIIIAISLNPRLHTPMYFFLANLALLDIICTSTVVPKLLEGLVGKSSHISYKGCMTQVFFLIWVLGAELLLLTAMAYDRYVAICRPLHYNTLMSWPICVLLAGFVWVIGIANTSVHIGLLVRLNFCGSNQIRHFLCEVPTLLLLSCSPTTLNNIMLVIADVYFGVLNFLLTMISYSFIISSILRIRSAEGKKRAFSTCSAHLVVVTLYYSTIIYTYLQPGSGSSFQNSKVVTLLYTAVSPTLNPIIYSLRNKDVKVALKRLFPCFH
How it was run: (§1)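 Whether a receptor–molecule pair is responsive (active) rests on the original authors' judgment that its measured signal was statistically different from baseline. Pairs without that judgment are non-responsive (inactive). Sources used varied assay methods, commonly transient luciferase assays in mammalian cell lines.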

UniProt Q8VGU3 = molecular target: T2, UniProt Q8VGU3
T2 sequence (whole entry): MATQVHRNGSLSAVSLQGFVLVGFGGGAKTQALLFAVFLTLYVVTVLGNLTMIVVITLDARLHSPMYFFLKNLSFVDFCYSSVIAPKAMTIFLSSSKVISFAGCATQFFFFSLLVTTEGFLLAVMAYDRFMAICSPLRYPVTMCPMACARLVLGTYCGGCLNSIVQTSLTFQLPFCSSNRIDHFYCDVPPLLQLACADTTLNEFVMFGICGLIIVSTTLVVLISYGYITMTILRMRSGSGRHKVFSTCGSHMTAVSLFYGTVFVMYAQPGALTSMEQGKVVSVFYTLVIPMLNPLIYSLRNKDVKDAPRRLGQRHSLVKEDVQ
How it was run: as §1

UniProt Q8VGV1 = molecular target: T3, UniProt Q8VGV1
T3 sequence (whole entry): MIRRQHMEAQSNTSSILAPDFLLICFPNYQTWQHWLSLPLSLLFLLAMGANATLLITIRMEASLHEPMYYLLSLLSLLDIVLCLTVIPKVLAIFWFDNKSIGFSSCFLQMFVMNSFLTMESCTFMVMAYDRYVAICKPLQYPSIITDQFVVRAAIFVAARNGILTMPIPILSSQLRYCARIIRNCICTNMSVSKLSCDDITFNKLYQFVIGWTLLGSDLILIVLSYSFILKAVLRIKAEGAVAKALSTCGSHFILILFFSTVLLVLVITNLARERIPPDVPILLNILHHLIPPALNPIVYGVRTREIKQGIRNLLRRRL
How it was run: as §1

UniProt Q8VGV7 = molecular target: T4, UniProt Q8VGV7
T4 sequence (whole entry): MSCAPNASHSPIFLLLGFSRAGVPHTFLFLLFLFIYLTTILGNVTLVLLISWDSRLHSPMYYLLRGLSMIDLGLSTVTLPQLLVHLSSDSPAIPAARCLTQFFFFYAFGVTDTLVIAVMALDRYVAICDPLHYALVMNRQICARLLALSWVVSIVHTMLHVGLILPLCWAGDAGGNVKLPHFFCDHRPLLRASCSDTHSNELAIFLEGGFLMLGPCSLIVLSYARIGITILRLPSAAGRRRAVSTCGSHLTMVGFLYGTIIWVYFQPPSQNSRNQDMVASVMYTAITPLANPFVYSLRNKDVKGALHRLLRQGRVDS
How it was run: as §1

UniProt Q8VGW5 = molecular target: T5, UniProt Q8VGW5
T5 sequence (whole entry): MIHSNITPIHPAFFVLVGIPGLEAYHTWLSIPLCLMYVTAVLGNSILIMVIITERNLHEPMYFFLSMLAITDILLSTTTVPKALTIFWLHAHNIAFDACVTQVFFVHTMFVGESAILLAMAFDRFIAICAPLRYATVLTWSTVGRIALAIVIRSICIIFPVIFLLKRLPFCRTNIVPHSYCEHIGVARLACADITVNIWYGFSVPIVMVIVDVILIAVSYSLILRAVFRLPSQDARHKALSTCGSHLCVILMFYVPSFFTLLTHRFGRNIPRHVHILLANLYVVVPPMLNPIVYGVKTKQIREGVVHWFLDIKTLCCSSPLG
How it was run: as §1

UniProt Q8VGX3 = molecular target: T6, UniProt Q8VGX3
T6 sequence (whole entry): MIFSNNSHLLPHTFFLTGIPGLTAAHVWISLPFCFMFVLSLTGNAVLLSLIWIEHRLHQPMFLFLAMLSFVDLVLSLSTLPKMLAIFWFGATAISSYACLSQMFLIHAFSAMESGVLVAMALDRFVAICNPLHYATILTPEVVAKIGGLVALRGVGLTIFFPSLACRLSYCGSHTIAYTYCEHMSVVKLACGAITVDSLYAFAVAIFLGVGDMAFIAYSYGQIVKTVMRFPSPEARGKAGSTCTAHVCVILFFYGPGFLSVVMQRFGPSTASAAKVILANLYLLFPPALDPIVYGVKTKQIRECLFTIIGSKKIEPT
How it was run: as §1

UniProt Q8VGX5 = molecular target: T7, UniProt Q8VGX5
T7 sequence (whole entry): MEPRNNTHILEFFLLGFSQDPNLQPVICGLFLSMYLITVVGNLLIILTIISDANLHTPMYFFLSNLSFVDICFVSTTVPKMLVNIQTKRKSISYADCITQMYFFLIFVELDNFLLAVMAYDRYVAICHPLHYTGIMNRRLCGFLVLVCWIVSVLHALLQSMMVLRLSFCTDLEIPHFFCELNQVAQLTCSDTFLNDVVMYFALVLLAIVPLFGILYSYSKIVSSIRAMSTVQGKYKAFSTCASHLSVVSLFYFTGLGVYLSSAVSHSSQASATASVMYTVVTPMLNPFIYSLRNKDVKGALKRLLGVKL
How it was run: as §1

UniProt Q8VGX8 = molecular target: T8, UniProt Q8VGX8
T8 sequence (whole entry): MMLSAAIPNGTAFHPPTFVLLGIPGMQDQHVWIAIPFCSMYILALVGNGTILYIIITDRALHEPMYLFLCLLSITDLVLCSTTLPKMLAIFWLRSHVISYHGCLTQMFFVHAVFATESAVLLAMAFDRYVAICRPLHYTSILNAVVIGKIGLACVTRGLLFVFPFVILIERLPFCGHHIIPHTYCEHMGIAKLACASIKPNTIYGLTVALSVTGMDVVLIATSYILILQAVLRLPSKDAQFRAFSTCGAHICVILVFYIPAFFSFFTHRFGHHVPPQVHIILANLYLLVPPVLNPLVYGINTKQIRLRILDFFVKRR
How it was run: as §1

UniProt Q8VGY6 = molecular target: T9, UniProt Q8VGY6
T9 sequence (whole entry): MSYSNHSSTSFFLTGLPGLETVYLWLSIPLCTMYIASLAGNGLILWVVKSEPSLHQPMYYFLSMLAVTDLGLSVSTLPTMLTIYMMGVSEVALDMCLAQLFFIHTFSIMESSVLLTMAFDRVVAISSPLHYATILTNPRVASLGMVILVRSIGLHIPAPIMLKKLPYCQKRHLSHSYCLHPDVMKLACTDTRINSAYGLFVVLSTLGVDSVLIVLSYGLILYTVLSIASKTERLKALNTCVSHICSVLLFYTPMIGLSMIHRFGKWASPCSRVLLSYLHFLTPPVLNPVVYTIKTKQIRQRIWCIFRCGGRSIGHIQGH
How it was run: as §1

UniProt Q8VGZ2 = molecular target: T10, UniProt Q8VGZ2
T10 sequence (whole entry): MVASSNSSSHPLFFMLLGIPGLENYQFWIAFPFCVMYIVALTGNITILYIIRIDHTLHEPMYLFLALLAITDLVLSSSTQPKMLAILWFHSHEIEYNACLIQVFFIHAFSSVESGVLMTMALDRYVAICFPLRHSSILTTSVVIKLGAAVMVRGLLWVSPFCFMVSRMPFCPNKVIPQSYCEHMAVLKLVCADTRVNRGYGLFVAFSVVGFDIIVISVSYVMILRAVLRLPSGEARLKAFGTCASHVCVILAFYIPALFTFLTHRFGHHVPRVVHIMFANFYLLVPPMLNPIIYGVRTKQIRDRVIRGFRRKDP
How it was run: as §1

Measured: odorant receptor agonist call;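 also: active if original authors judged signal statistically different from baseline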

CC(=O)c1ccccc1
active: UniProt Q8VGX5
inactive: UniProt Q8VGT4 | UniProt Q8VGU3 | UniProt Q8VGV1 | UniProt Q8VGV7 | UniProt Q8VGW5 | UniProt Q8VGX3 | UniProt Q8VGX8 | UniProt Q8VGY6 | UniProt Q8VGZ2
